The text below walks through data of publication PMC7268548, “A missense variant in specificity protein 6 (SP6) is associated with amelogenesis imperfecta”.

In the series the target is T1, SP6 wild type (Homo sapiens) (UniProt Q3SY56).
T1 sequence (looked up, limits assumed): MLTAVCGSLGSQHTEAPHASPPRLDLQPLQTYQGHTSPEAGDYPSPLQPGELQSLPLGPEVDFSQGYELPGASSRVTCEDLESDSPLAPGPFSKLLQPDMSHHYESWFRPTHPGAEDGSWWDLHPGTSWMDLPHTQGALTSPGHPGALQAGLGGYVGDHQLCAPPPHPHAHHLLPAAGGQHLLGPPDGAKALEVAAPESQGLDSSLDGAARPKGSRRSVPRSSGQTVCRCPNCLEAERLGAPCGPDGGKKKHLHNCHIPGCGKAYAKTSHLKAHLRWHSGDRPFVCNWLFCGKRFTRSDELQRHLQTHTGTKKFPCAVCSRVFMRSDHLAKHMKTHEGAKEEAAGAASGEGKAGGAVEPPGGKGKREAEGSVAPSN
Nature of the series: SPR. To be noted: low signal, Biacore 3000 SPR, 10 mM HEPES pH 7.5, 200 mM NaCl, 0.01% surfactant P-20, 25 C, 40 uL/min, protein 6.25-400 nM, DNA on SA chip, recombinant protein, protein details: N-terminal His-GST, label: 5'-biotin on forward strand. For orientation: SPR reads the build-up and loss of mass on a sensor chip optically.

The exact form of at least one protein or probe is not confirmed. The comparison behind a weaker result is the experiment's own reference, which may not be listed here. Where a protein sequence is shown, tags need not be part of it.

For “CAATCTAGTTTAGCCCCCCGCCCCACCCTCGCTGACCTAA (double strand) [CA3 promoter probe]”, the binding result (max 29 RU at 400 nM) is listed as “binds more weakly”.

As to “CCCGCCCACCTCACCGCCCCGCCCCACCCCACCCTGCGGA (double strand) [ROCK1 promoter probe]”, under “max 16 RU at 400 nM”, the binding result was “binds more weakly”.
